PubChem BioAssay AID336 (DTP/NCI, 2004)
The list is a part of this screen's results and no random one: it gathers tests that were run many times, whatever their T/C, doses with no T/C, and many T/C values between a quarter and a half above the control. Other doses and runs of a compound stand elsewhere. T/C: endpoint of the treated group in % of that of the vehicle group. Some entries give survivors of the animals treated and no T/C: the source holds a T/C of zero for them, seemingly a mark for toxic or unscored doses. Some survivor counts are full or nearly so, which does not show that the dose was tolerated: the source hardly ever lists a survival T/C far under the control, and the zero likely stands for such cases as well. Counts of survivors are from the toxicity check (mostly the fifth day) where no day follows; animals may have died later. Schedule codes are those of the source, taken here to give the interval after Q, in days (D) or hours (H), and the number of doses after X. Some entries hold several experiments; the values are given in rising order. Where survival is the endpoint, the PubChem record calls one and a half times the control and up active, and a quarter to a half above the control has no call in these data; cut-offs in other NCI protocols can differ. Some T/C values carry the count of animals alive at the toxicity check (mostly the fifth day); where none is given, no animal had died by that day.

Test system: BDF1 mice, P388/VCR leukemia ip, median survival T/C
Assay: NCI In Vivo Anticancer Drug Screen. Data for tumor model P388 Leukemia resistant to Vincristine; NSC 67574 (intraperitoneal) in B6D2F1 (BDF1) mice
Conditions: T/C endpoint: median survival time, higher T/C = longer survival
Protocol: The antitumor activity of compounds was measured in mice bearing transplantable tumors. Survival or tumor size were measured and the results are expressed as the measurement made in the treated group (T) divided by the measurement made in the vehicle treated control group (C). The tumor model used in this assay is P388 Leukemia resistant to Vincristine; NSC 67574 (intraperitoneal) in B6D2F1 (BDF1) mice

[1] = dose: 60.0 mg/kg/injection, schedule: Q01DX010 (ip), vehicle: saline
[2] = dose: 0.5 mg/kg/injection, schedule: Q01DX010 (ip), vehicle: saline
[3] = dose: 1.25 mg/kg/injection, schedule: Q01DX010 (ip), vehicle: saline

O=C(O)CCCc1ccc(N(CCCl)CCCl)cc1
T/C (dose: 12.5 mg/kg/injection, schedule: Q01DX010 (ip), vehicle: saline): 144 % of control
survivor count (dose: 25.0 mg/kg/injection, schedule: Q01DX010 (ip), vehicle: saline): 0 of 6

COc1ccc(CC2C(=O)NC(C)C(=O)N(C)C3C(=O)N(C)C(Cc4ccc(O)c(c4)Oc4ccc(cc4)C3O)C(=O)NC(C)C(=O)NC(C)C(=O)N2C)cc1 (stereo not given)
survivor count (dose: 4.32 mg/kg/injection, schedule: Q04DX003 (ip), vehicle: other): 4 of 8
survivor count (dose: 7.2 mg/kg/injection, schedule: Q04DX003 (ip), vehicle: other): 1 of 8
survivor count (dose: 12.0 mg/kg/injection, schedule: Q04DX003 (ip), vehicle: other): 0 of 8
survivor count (dose: 20.0 mg/kg/injection, schedule: Q04DX003 (ip), vehicle: other): 0 of 8

Cn1c(N)nc2nc[nH]c2c1=S
T/C (dose: 80.0 mg/kg/injection, schedule: Q01DX010 (ip), vehicle: saline): 134 % of control

O=C(Nc1cccc(NC(=O)Nc2cccc(C3=NCCN3)c2)c1)Nc1cccc(C2=NCCN2)c1
T/C (dose: 27.0 mg/kg/injection, schedule: Q01DX010 (ip), vehicle: saline): 140 % of control
T/C [1]: 145 % of control

COC(=O)C[C@](O)(CCC(C)(C)O)C(=O)O[C@@H]1C(OC)=C[C@]23CCCN2CCc2cc4c(cc2[C@H]13)OCO4
survivor count (dose: 2.0 mg/kg/injection, schedule: Q01DX009 (ip), vehicle: saline): 6 of 6

N#CCSc1ncnc2nc[nH]c12
survivor count (dose: 120.0 mg/kg/injection, schedule: Q01DX010 (ip), vehicle: saline): 5 of 6 and 6 of 6

O[C@H](CN1CC1)[C@@H](O)CN1CC1
T/C [2]: 137 % of control
survivor count [2]: 6 of 6
survivor count (dose: 1.0 mg/kg/injection, schedule: Q01DX010 (ip), vehicle: saline): 3 of 6 and 6 of 6

CNc1nc(Nc2ccc(C3=NCCN3)cc2)nc(Nc2ccc(C3=NCCN3)cc2)n1
T/C (dose: 13.3 mg/kg/injection, schedule: Q01DX010 (ip), vehicle: saline): 125 % of control

Oc1cc(CN(CCCl)CCCl)c(O)cc1CN(CCCl)CCCl
T/C (dose: 0.63 mg/kg/injection, schedule: Q01DX010 (ip), vehicle: saline): 126 and 133 % of control
T/C [3]: 137 % of control
survivor count [3]: 3 of 6
T/C (dose: 2.5 mg/kg/injection, schedule: Q01DX010 (ip), vehicle: saline): 137 % of control [5 of 6 alive]

CC(=O)c1cccc(NC2C(N)C(NC(=O)N(C)C)(C(C)O)C(C)(O)C2(O)COC(=O)c2c(C)cccc2O)c1 (stereo not given)
survivor count (dose: 25.0 mg/kg/injection, schedule: Q04DX003 (ip), vehicle: alkali diluted with saline): 5 of 8

O=C1N[C@@H]([C@H]2CC[C@H](Cl)CN2)C(=O)N[C@H]1[C@H]1CC[C@H](Cl)CN1
T/C (dose: 1.44 mg/kg/injection, schedule: Q04DX003 (ip), vehicle: saline): 141 % of control
T/C (dose: 6.67 mg/kg/injection, schedule: Q04DX003 (ip), vehicle: saline): 134 % of control

O=P1(N(CCCl)CCCl)NCCCO1 (stereo not given)
T/C (dose: 86.4 mg/kg/injection, schedule: Q01DX001 (ip), vehicle: saline): 149 % of control
survivor count (dose: 400.0 mg/kg/injection, schedule: Q01DX001 (ip), vehicle: saline): 7 of 8

O=C(Nc1ccc(C2=NCCCN2)cc1)c1ccc(C(=O)Nc2ccc(C3=NCCCN3)cc2)cc1
T/C (dose: 7.2 mg/kg/injection, schedule: Q04DX003 (ip), vehicle: Klucel (hydroxypropylcellulose) (HPC)): 128 % of control
T/C (dose: 12.0 mg/kg/injection, schedule: Q04DX003 (ip), vehicle: Klucel (hydroxypropylcellulose) (HPC)): 136 % of control [7 of 8 alive]

O=C(Nc1ccc(NC(=O)Nc2cccc(C3=NCCN3)c2)cc1)Nc1cccc(C2=NCCN2)c1
T/C [1]: 141 and 145 % of control
T/C (dose: 240.0 mg/kg/injection, schedule: Q01DX010 (ip), vehicle: saline): 133 and 137 % of control

CN(C)/N=N/c1nc[nH]c1C(N)=O
T/C (dose: 50.0 mg/kg/injection, schedule: Q01DX010 (ip), vehicle: saline): 125 % of control
T/C (dose: 100.0 mg/kg/injection, schedule: Q01DX010 (ip), vehicle: saline): 130 and 133 % of control
